# Experimental data published in publication PMC7819943, “Rice protein-binding microarrays: a tool to detect cis-acting elements near promoter regions in rice”.
# Chains of the proteins cited; added tags and fusions are not shown.
# UniProt Q0JBA9, entry or part of it: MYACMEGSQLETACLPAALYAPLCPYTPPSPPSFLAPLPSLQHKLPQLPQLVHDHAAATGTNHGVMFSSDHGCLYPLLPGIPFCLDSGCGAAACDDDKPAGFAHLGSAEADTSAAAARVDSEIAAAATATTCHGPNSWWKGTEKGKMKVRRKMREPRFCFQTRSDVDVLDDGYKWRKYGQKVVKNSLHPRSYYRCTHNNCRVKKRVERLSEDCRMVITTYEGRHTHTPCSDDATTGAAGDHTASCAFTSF
# The other results are listed elsewhere or left out.
# Biological target: OsWRKY34 (Oryza sativa, UniProt Q0JBA9 1-250)
# Test: protein-binding microarray (RPBM); PBS, 2% BSA, 51.3 ng/ul salmon testes DNA, 50 uM zinc acetate, 200 nM TF, 25 C, 1 h; high values mean tight binding
# Settings: protein: recombinant; tags: N-terminal polyhistidine and DsRed monomer fusion (pET32a); label: CyDye5-dUTP incorporated in the synthesized complementary strand; 3' TTTTT single-stranded linker to array surface; dsDNA, one strand shown
# Method in brief: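 Binding signal here means per-feature fluorescence intensity in arbitrary units. The values were read on an Axon 4000B scanner after a custom Agilent array, double-stranded by primer extension with Cy5-dUTP, was incubated with 200 nM protein at 25 °C for 1 h in PBS with 2% BSA, salmon testes DNA and 50 µM zinc acetate, then washed. The proteins were transcription factors with an N-terminal polyhistidine tag and DsRed, expressed in E. coli BL21-CodonPlus and purified on Ni–NTA.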
row,Sequence,binding signal
1,GGGCTAGTTCCGATCGGTACTAGTTCGGGGCGTGACACACCGGAGTCACCTAGTGCAG,9460 fluorescence intensity (a.u.)
2,TCGTCGACGTGGGAAGGGGTGGTCCGTCCGATCTGAATAACGGAGTCACCTAGTGCAG,8440 fluorescence intensity (a.u.)
3,ATTTGTATTGAGCTTTGTGTATATCTGTTTGGCCCAGTTGCGGAGTCACCTAGTGCAG,9150 fluorescence intensity (a.u.)
4,ACGCACGATGCTTTGACTATGGATGGCCTTATCATGTATTCGGAGTCACCTAGTGCAG,9390 fluorescence intensity (a.u.)
5,GGTGACAGTTTGGTTAGTGACAAATAGTTACATTCTCGTTCGGAGTCACCTAGTGCAG,9140 fluorescence intensity (a.u.)
6,TCCGACTGCACGCCCGCTGGAACCACGCGCCCTACCCCGCCGGAGTCACCTAGTGCAG,9210 fluorescence intensity (a.u.)
7,CGCTCACTCCTCTCCCGCGCTGACCACCTCTGCATGCGCTCGGAGTCACCTAGTGCAG,8060 fluorescence intensity (a.u.)
8,TCATGCAATTTGGTTGAAGCTGTCCTATACTATTATCCTTCGGAGTCACCTAGTGCAG,9060 fluorescence intensity (a.u.)
9,CTCTCTATTTCGTGTTATAAGTCACTTTGATTTTTTTTCACGGAGTCACCTAGTGCAG,8860 fluorescence intensity (a.u.)
10,TATACCCTAAATTATTTTTTTGCATCGTTAATTTTTTATACGGAGTCACCTAGTGCAG,8050 fluorescence intensity (a.u.)
11,TCTTTCTTGGTGTTTGTTCAATATTTGTTTCATCCATGCTCGGAGTCACCTAGTGCAG,8180 fluorescence intensity (a.u.)
12,CTAGGACCTGGTACCTGTGATATGTGTATCCTGTTGCAACCGGAGTCACCTAGTGCAG,8050 fluorescence intensity (a.u.)
13,ATCCTTTCTCTTCTCAGATCTCAACAACTCGTTTTTGATCCGGAGTCACCTAGTGCAG,9070 fluorescence intensity (a.u.)
14,ACTGCCTAGTACTGTGGGAATTGATTGTGGTTTGCTACTTCGGAGTCACCTAGTGCAG,8220 fluorescence intensity (a.u.)
15,CTCACCTCATCTCATGGCGTTTTTGTTATCTGCTCCACCTCGGAGTCACCTAGTGCAG,8540 fluorescence intensity (a.u.)
16,GTAATCTCGGAAATGTGGGGTTGTTGCGGTTGATTTTTTGCGGAGTCACCTAGTGCAG,10100 fluorescence intensity (a.u.)
17,ATGATGCCTTGATGCATGTGTGCGGTTGCTCTTTTTTTTTCGGAGTCACCTAGTGCAG,10100 fluorescence intensity (a.u.)
18,ATTACCCTAATCATCATTCATTCATGTATAGCTCATCCTACGGAGTCACCTAGTGCAG,8810 fluorescence intensity (a.u.)
19,CACAGTTCTCTTATTGCCATTTTTTGTGATTGATATTTGACGGAGTCACCTAGTGCAG,8540 fluorescence intensity (a.u.)
20,AATGTTCAAAATTGTGCAATCAAGGTCTTACGGCAGTATACGGAGTCACCTAGTGCAG,8120 fluorescence intensity (a.u.)
21,ATCCATCCGCCGCCGCCGCCGCCGCCGCCGCCACTTTATGCGGAGTCACCTAGTGCAG,10300 fluorescence intensity (a.u.)

row,Sequence,binding signal
1,TACTTTAATTTTGGATAGACTAGTTCTTCCATGCTTTGCTCGGAGTCACCTAGTGCAG,8590 fluorescence intensity (a.u.)
2,TGGGGAGTGATTTCTGGTATTGCGGTTGAGGGATACGATTCGGAGTCACCTAGTGCAG,9560 fluorescence intensity (a.u.)
3,GTTACACCTTTCAACCCTCTTCTATGTTCTAACAGCCAACCGGAGTCACCTAGTGCAG,8840 fluorescence intensity (a.u.)
4,ATCGCGCTCCCACGCCGCTCGCCTCGTCGACCTCGTCACCCGGAGTCACCTAGTGCAG,9380 fluorescence intensity (a.u.)
5,GAACTTCTTTAGTTATGATCGTTTTGCTATGTGGATTGATCGGAGTCACCTAGTGCAG,8330 fluorescence intensity (a.u.)
6,ACTAACATGGTAGATTGCGCATTTATTTGTACTGTATTATCGGAGTCACCTAGTGCAG,8820 fluorescence intensity (a.u.)
7,TCCATCTCCGCCTCCGCCGCCGCCGCCGCCGACCAAGTCGCGGAGTCACCTAGTGCAG,8290 fluorescence intensity (a.u.)
8,CTGATCTTAGTTCTTGTCGACCAAGTGATCTATACTCCCTCGGAGTCACCTAGTGCAG,8320 fluorescence intensity (a.u.)
9,CCCACCTCCTCCAATCCACAGCCTCGTCGATCCACTTCAACGGAGTCACCTAGTGCAG,8110 fluorescence intensity (a.u.)
10,GTGTATGCACGTTTATAGGTGTGAGTGTATGTTGTAAGCGCGGAGTCACCTAGTGCAG,8560 fluorescence intensity (a.u.)
11,TTCCACAAGAGCTAGCATCGTTGAACTTCCTTGCAACATTCGGAGTCACCTAGTGCAG,8380 fluorescence intensity (a.u.)
12,GCTTACTGGTTATGGTTGGTAGGGTTGGACGTGTAACAGACGGAGTCACCTAGTGCAG,20900 fluorescence intensity (a.u.)
13,GCAAGCACTCATATAAACTGTACACTCACCACTATAAACACGGAGTCACCTAGTGCAG,9570 fluorescence intensity (a.u.)
14,ACTCCTCTTCTCTTCATTTTCTTCTTCCCCTGTGCTTCTCCGGAGTCACCTAGTGCAG,10900 fluorescence intensity (a.u.)
15,CTCCACCGTCACCTACTCCTACCCCACCATAAAAGGTCACCGGAGTCACCTAGTGCAG,8700 fluorescence intensity (a.u.)
16,CCAGTCCCTACGCTCTTGGACTGTTCACTTAGCCGCATCCCGGAGTCACCTAGTGCAG,12400 fluorescence intensity (a.u.)
17,AGCCCGGCCTCTCTCTCTCCCGTCCTTGTCTTCTTGCGCGCGGAGTCACCTAGTGCAG,9480 fluorescence intensity (a.u.)
18,AAAATATGGAGTAGATGGATAGTACCCTTTTTTTTTTTCCCGGAGTCACCTAGTGCAG,9780 fluorescence intensity (a.u.)
19,ATCCATATACCCATTGCTACATCTTCTAGTTTGAACATCTCGGAGTCACCTAGTGCAG,9870 fluorescence intensity (a.u.)
20,GGGGTGTGGATTTTGACGGTCGAACCGAGCTTAGGTGATTCGGAGTCACCTAGTGCAG,9450 fluorescence intensity (a.u.)
21,CCTGTTAGCTGTGTTTGAGACATCTGAATTTTGTGTACTCCGGAGTCACCTAGTGCAG,8380 fluorescence intensity (a.u.)

row,Sequence,binding signal
1,TACTCCAGTACACTTTTTTTGCAGTCCAACCAATCAGCCACGGAGTCACCTAGTGCAG,9070 fluorescence intensity (a.u.)
2,GCCAAATATTGACTGCTGGTTTTGTTTACCCTCCGCAGTGCGGAGTCACCTAGTGCAG,9050 fluorescence intensity (a.u.)
3,TATGCCTCTTCTCAGGGAGTGCGCTTTTGTCTTGGTCATTCGGAGTCACCTAGTGCAG,10500 fluorescence intensity (a.u.)
4,ATAACAACCCTCCTCCGCATCGCTGACCACGTTGACCATCCGGAGTCACCTAGTGCAG,13000 fluorescence intensity (a.u.)
5,ACACAACCCAAAAACCCTCCAGGAGGTTGCCTCCATTGACCGGAGTCACCTAGTGCAG,8460 fluorescence intensity (a.u.)
6,TATGTGGGCTCAGATCTGCTCTTGACGGGCTTTCATTAAACGGAGTCACCTAGTGCAG,8630 fluorescence intensity (a.u.)
7,GGGAGGGTCTGCCTGGCTTACTAATATCCGCCAAAAATAACGGAGTCACCTAGTGCAG,9450 fluorescence intensity (a.u.)
8,CTCGCGGTCTTTTAAACATTATTGCCACACTCTTTTCATACGGAGTCACCTAGTGCAG,10500 fluorescence intensity (a.u.)
9,GCTGCTCCTGGCACCCAGTTACTGCATGCCCGGTTTCCTCCGGAGTCACCTAGTGCAG,8820 fluorescence intensity (a.u.)
10,TTCCTCTACATTCTACGTCCGGTTGGATTTTGCATGCGATCGGAGTCACCTAGTGCAG,8640 fluorescence intensity (a.u.)
11,TCTTCCTCATGCGATTTGGTTGGTTGGTTTGACGCTACACCGGAGTCACCTAGTGCAG,13600 fluorescence intensity (a.u.)
12,CGCTGGAAAATGGGTGGGATTTCGCGAGCTCTCCTGCCTCCGGAGTCACCTAGTGCAG,8960 fluorescence intensity (a.u.)
13,GATGGGCCACCAAGTCTCGCCCGCTCCCTCGTATAAAAACCGGAGTCACCTAGTGCAG,9780 fluorescence intensity (a.u.)
14,CCTCGCAATTTACATGGCTCCTACTAGGTTGTGTAGCTGCCGGAGTCACCTAGTGCAG,8180 fluorescence intensity (a.u.)
15,TGTGTTTGTGTTGGATATTTTTTGAGTAGCGTCCTTTCCACGGAGTCACCTAGTGCAG,12200 fluorescence intensity (a.u.)
16,TTCGGAAAAGGTCCCGTGGATCTCGTCGCCTCACCCCACTCGGAGTCACCTAGTGCAG,8980 fluorescence intensity (a.u.)
17,AAGGCTAGAATCTCTCCTTTTCCATTTCCCTCTCCTAATTCGGAGTCACCTAGTGCAG,8380 fluorescence intensity (a.u.)
18,AGATTGATCCTGAAATTTATCCGCAACCTATTTAAATCCTCGGAGTCACCTAGTGCAG,8420 fluorescence intensity (a.u.)
19,ACAGCCCTCAATTTTTCATTCCACAGCCACCACGATTTTACGGAGTCACCTAGTGCAG,11900 fluorescence intensity (a.u.)
20,TTTCTTAGCTCGTGACCAATTTATACTCTATTTTCATGGCCGGAGTCACCTAGTGCAG,8720 fluorescence intensity (a.u.)
21,GAGAGGAGCATTTTGGCCCTTGGTTTCTTTCGGTTCTTCTCGGAGTCACCTAGTGCAG,9780 fluorescence intensity (a.u.)

row,Sequence,binding signal
1,CTGTTCCATTTCTCCTTGTTGCATCAGTAACTCCAAACCACGGAGTCACCTAGTGCAG,12200 fluorescence intensity (a.u.)
2,CATCTGATCGGCATCGGCATCGTCCTCGTCCTCGGCATCACGGAGTCACCTAGTGCAG,9990 fluorescence intensity (a.u.)
3,TACTACTACTTCTCGGCCGGTATGACGTTCGCCGACGATTCGGAGTCACCTAGTGCAG,11000 fluorescence intensity (a.u.)
4,ATCATATTCTAGTTCTACATATTCTGGCAATTATTCGTTACGGAGTCACCTAGTGCAG,8260 fluorescence intensity (a.u.)
5,GATGTATCCGATTTGATTTGACCTGCAGGTGCAAGTATTACGGAGTCACCTAGTGCAG,11700 fluorescence intensity (a.u.)
6,ATCACATTTCTTATGTCCTGCAATCATAACCTTAACCTTTCGGAGTCACCTAGTGCAG,9180 fluorescence intensity (a.u.)
7,CTGCGAATGTTGCTGTACAAACCTAACTCATGATCCATTCCGGAGTCACCTAGTGCAG,8500 fluorescence intensity (a.u.)
8,GCACGTACGTTCAGCTGTAAATGTTCTTTGCTGATTGCTACGGAGTCACCTAGTGCAG,8630 fluorescence intensity (a.u.)
9,ACTTATTTGTTCTGATATCAGTGGGGTTTCATCGTTCAATCGGAGTCACCTAGTGCAG,14600 fluorescence intensity (a.u.)
10,AGCTGTGTGTATTTTATGCAGAGGCCGGGGTGGGCTCGGTCGGAGTCACCTAGTGCAG,10100 fluorescence intensity (a.u.)
11,ATATATCTATATTTTTCCCCTTGGCCTCTTTTGCCCTTCACGGAGTCACCTAGTGCAG,9200 fluorescence intensity (a.u.)
12,TATATATATATATATATATATATATATATGATAATTTGTTCGGAGTCACCTAGTGCAG,8670 fluorescence intensity (a.u.)
13,GTGTATTATTCCACACGTGTTGCACCGGATTGTAATTGAACGGAGTCACCTAGTGCAG,8890 fluorescence intensity (a.u.)
14,AAGCTTTGGATGACTATCTTTCTCGGTTTAATAAAATTTTCGGAGTCACCTAGTGCAG,10500 fluorescence intensity (a.u.)
15,CCGCGCCACCTCTGCCTCTTCTTGGTTCCGCCTCAAGAAACGGAGTCACCTAGTGCAG,10900 fluorescence intensity (a.u.)
16,CACCAACCATTTCTCCTCTACCATTCCCACTATTATCATCCGGAGTCACCTAGTGCAG,12300 fluorescence intensity (a.u.)
17,GTATTTTATGTTTGACTAAATATTTTTAAATTTTTCATAACGGAGTCACCTAGTGCAG,8480 fluorescence intensity (a.u.)
18,CATTAGTCACACGCACTCACACCAACATTCACACAAATTCCGGAGTCACCTAGTGCAG,9940 fluorescence intensity (a.u.)
19,GATCATGTGTGGAGTTGATTGTCCAATGTGTGGAGTTGTTCGGAGTCACCTAGTGCAG,9900 fluorescence intensity (a.u.)
20,CTCCTCCCGAGCACGTGCTATGATTTTTTTCTAACAATTTCGGAGTCACCTAGTGCAG,8460 fluorescence intensity (a.u.)
21,CCTGTGCTGCTGGTTTGTGTGTGTGTGCCTGTGTAGTACACGGAGTCACCTAGTGCAG,8300 fluorescence intensity (a.u.)

# Given with tabs: entries from further up.
row	Sequence	binding signal
2	CATCTGATCGGCATCGGCATCGTCCTCGTCCTCGGCATCACGGAGTCACCTAGTGCAG	9990 fluorescence intensity (a.u.)
4	ATCATATTCTAGTTCTACATATTCTGGCAATTATTCGTTACGGAGTCACCTAGTGCAG	8260 fluorescence intensity (a.u.)
5	GATGTATCCGATTTGATTTGACCTGCAGGTGCAAGTATTACGGAGTCACCTAGTGCAG	11700 fluorescence intensity (a.u.)
14	AAGCTTTGGATGACTATCTTTCTCGGTTTAATAAAATTTTCGGAGTCACCTAGTGCAG	10500 fluorescence intensity (a.u.)
